# Source: the supplement of paper PMC12889115
# Some of the results follow. These are raw signals, not scaled to a control.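 Primary screen: polymyxin B was added at a level permeabilizing Salmonella outer membranes while sparing inner membranes. DMSO wells, both with and without polymyxin B, established maximum growth. Plate-to-plate variation meant each plate was ranked on its own, and the lowest-OD600 compounds were selected as hits.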
# System: Salmonella enterica serovar Typhimurium SL1344
# Assay: bacterial growth OD600 after 18 h with compound and polymyxin B; higher = more bacterial growth (less inhibition)
# Settings: 50 µM, Mueller-Hinton broth
SMILES,bacterial growth OD600 (polymyxin B 0.75 µg/mL),bacterial growth OD600 (polymyxin B 1 µg/mL)
CCOC(=O)N1CCC(NC(=O)C2CC23CCN(C(=O)CCC(=O)c2ccc(F)cc2)CC3)CC1 (stereo not given),0.83,–
CCn1ccnc1CN1CCC(CCC(=O)Nc2cccc(OC)c2)CC1,–,1.18
COc1ccc(CN2CCC(CO)(CCCc3ccccc3)CC2)cc1OC,–,0.769
Cn1ccnc1CN1CCOC(Cc2cccc(C(F)(F)F)c2)C1 (stereo not given),0.754,–
O=C(NCCN1CCOCC1)c1ccc(N2CCC(NCc3cccc(C(F)(F)F)c3)CC2)cc1,0.827,–
CCC(NC(=O)C1CC(=O)c2sc(NC(=O)c3c(F)cccc3Cl)nc2C1)c1cccs1 (stereo not given),0.729,–
O=C(NCc1ccccc1)N1C[C@H]2OC(=O)N(CCc3ccc(F)cc3)[C@H]2C1,0.801,–
O=C1N(Cc2cccc(Cl)c2)C[C@@H]2C[C@@H](c3cccn3-c3nccs3)N3CCC[C@@]123,–,0.013
CC1(CCC(=O)N2CCC(N3CCCC(C(=O)NC4CC4)C3)CC2)CC1 (stereo not given),0.824,–
CC(C)OCCCNC(=O)c1ccc(OC2CCN(S(C)(=O)=O)CC2)c(Cl)c1,–,0.836
COc1ccc(NC2CCCN(C(C)=O)C2)cc1 (stereo not given),–,0.927
CO[C@H]1[C@H](NC(=O)c2cccs2)c2ccccc2C12CCN(CC#Cc1ccccc1)CC2,0.004,–
CCN1CC(C(=O)NCc2cccnc2Oc2c(C)cccc2C)CCC1=O (stereo not given),0.86,–
O=C(Nc1ccc(Oc2ccccc2F)cc1)C1CCN(Cc2ccco2)CC1,–,0.81
CCn1nc(C)cc1C(=O)N1CCOc2ccc(CN3CCN(c4ccccc4)CC3)cc2C1,0.862,–
CC(=O)c1cccc(OCc2cc(C(=O)N(C)Cc3c(C)n[nH]c3C)n[nH]2)c1,–,1.03
CC(C)(O)C#Cc1ccc(CNC2COc3ccccc3C2)cc1 (stereo not given),0.51,–
CN(CCc1ccccn1)[C@@H]1CCN(Cc2ccc3c(c2)CC(C)(C)O3)C[C@H]1O,0.866,–
CCOC(=O)C1(C/C=C/c2ccccc2)CCCN(Cc2ccncc2)C1 (stereo not given),0.005,–
OCC1(Cc2ccc(Cl)cc2)CCN(CCCc2ccccc2)CC1,0.587,–

# An excerpt from above in order of SMILES length, high to low:
SMILES,bacterial growth OD600 (polymyxin B 0.75 µg/mL),bacterial growth OD600 (polymyxin B 1 µg/mL)
O=C(NCCN1CCOCC1)c1ccc(N2CCC(NCc3cccc(C(F)(F)F)c3)CC2)cc1,0.827,–
CC(C)OCCCNC(=O)c1ccc(OC2CCN(S(C)(=O)=O)CC2)c(Cl)c1,–,0.836
O=C(Nc1ccc(Oc2ccccc2F)cc1)C1CCN(Cc2ccco2)CC1,–,0.81
CCn1ccnc1CN1CCC(CCC(=O)Nc2cccc(OC)c2)CC1,–,1.18
CC(C)(O)C#Cc1ccc(CNC2COc3ccccc3C2)cc1 (stereo not given),0.51,–
